The target in experiment [1] is Recombinant human PD-1-Ig (extracellular region of PD-1 fused with the immunoglobulin G Fc segment) (human) (UniProt Q15116). Put plainly: Ig pull-down with purified proteins (FIG. 2D).
The target is the same in experiment [2]. The experiment can be described thus: Ig pull-down with purified proteins, anti-His blot.
The target of experiment [3] is PD-1-HA (HA-tagged PD-1 expressed in 293T cells) (human) (UniProt Q15116). The experiment can be described thus: Ig pull-down from lysates of transfected 293T cells, immunoblot.
The target is the same in experiment [4]. The experiment can be described thus: Ig pull-down from lysates of transfected 293T cells, immunoblot (FIG. 2B). On the technique in general: In western blotting, separated proteins are transferred to a membrane and probed.
Experiment [5] shares this target. Put plainly: co-immunoprecipitation from 293T lysates (FIG. 2C).
Experiment [6] has the same target. The experiment can be described thus: reciprocal co-immunoprecipitation from 293T lysates.

Chains of the proteins cited; added tags and fusions are not shown. Lines headed by an entry give the natural chain unless they say otherwise; changes in a name come on top.
UniProt Q15116: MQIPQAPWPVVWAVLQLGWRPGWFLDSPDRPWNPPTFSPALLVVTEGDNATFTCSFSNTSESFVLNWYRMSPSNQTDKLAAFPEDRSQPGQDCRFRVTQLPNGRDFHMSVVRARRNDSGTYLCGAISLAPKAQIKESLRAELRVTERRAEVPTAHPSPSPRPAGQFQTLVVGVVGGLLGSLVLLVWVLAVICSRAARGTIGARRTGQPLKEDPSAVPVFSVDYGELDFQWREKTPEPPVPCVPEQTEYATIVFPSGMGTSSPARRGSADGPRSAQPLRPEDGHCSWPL
UniProt Q9H7M9: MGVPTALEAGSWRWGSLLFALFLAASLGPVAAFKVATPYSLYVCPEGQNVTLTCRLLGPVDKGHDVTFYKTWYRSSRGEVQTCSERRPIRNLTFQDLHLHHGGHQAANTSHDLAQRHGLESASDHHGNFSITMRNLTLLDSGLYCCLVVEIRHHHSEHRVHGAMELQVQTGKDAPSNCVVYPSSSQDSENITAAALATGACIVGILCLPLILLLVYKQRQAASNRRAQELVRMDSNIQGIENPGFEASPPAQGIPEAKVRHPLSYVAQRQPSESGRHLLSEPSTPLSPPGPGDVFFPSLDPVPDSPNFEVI

These are yes or no findings as the source states them, for the method shown. In cells and extracts the contact can be indirect. Some entries that bind do so weakly or less than the wild type.

As for “6×His-DD1α 33-194 (from UniProt Q9H7M9 33-194) (receptor)”, the binding result in experiment [1] and in experiment [2] was “binds” throughout.

Consider “DD1α-Ig (extracellular region of DD1α fused with the immunoglobulin G Fc segment) (from UniProt Q9H7M9 33-194) (Fc fusion)”, for which the binding result in experiment [3] and in experiment [4] was “binds” in each case.

As for “DD1α-Myc (Myc-tagged DD1α expressed in 293T cells) (from UniProt Q9H7M9 33-311) (receptor)”, the binding entry in experiment [5] and in experiment [6] was “binds” each time.

Values taken from patent US20220401536A1.
